We go through one molecule from publication PMC8047017.

No constants are given. Whether binding was seen depends on the method and setting. Some binding calls cover weakened binding; strength is not graded here.

The target in this experiment is lysosome-associated membrane protein type 2A in isolated lysosomes (in vitro assays of Fig. 3d, e) (not stated (lysosomes from rat liver or mouse brain)) (UniProt P17046). The experiment can be described thus: native gel or EMSA; blue-native electrophoresis (3-12% NativePAGE Bis-Tris) of isolated lysosomes solubilised in 1% octylglucoside, immunoblot for L2A; lysosomes incubated alone or with tau, Ac-Tau, hsc70 or alpha-synuclein.

B1: lysosome-associated membrane protein type 2A in isolated lysosomes (in vitro assays of Fig. 3d, e) (receptor, UniProt P17046 27-411)
chain: LKLNLTDSKGTCLYAEWEMNFTITYEALKVNETVTITVPDKVTYNGSSCGDDKNGAKIMIQYGSTLSWAVNFTKEASQYFINNITLSYNTNDTKTFPGAVPKGILTVIIPVGSQLPLGVIFKCSSVLTFNLSPVVQHYWGIHLQAFVQNGTVSKHEQVCKEDKTATTVAPIIHTTVPSPTTTLTPTSIPVPTPTVGNYTISNGNATCLLATMGLQLNITEEKVPFIFNINPAITNFTGSCQPQTAQLRLNNSQIKYLDFIFAVKNEKRFYLKEVNVNMYLANGSAFHVSNNNLSFWDAPLGSSYMCNKEQVVSVSRTFQINTFNLKVQPFNVTKGEYSTAQDCSADEDNFLVPIAVGAALGGVLILVLLAYFIGLKRHHTGYEQF
B1: the binding entry was “binds”.
